From PMC9792466
No constants are given. Whether binding was seen depends on the method and setting. In cells and extracts the contact can be indirect. Some binding calls cover weakened binding; strength is not graded here.

The chains behind the UniProt entries cited, without tags or fusion partners.
UniProt Q8BUN5: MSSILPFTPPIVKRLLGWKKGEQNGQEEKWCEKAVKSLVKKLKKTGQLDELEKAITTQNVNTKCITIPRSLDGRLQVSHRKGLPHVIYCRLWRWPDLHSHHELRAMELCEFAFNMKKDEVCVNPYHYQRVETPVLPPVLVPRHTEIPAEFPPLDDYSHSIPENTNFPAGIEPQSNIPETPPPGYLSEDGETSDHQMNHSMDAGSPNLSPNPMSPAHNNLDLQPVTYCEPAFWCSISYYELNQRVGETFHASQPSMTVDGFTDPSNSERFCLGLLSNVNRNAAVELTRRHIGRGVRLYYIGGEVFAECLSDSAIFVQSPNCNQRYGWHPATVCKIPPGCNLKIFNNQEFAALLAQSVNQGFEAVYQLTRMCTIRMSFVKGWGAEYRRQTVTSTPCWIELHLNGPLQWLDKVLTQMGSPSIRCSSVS

Biological target: T1, WW domain-containing oxidoreductase (WWOX) (mouse (endogenous in 266-6)) (UniProt Q91WL8)
T1 sequence: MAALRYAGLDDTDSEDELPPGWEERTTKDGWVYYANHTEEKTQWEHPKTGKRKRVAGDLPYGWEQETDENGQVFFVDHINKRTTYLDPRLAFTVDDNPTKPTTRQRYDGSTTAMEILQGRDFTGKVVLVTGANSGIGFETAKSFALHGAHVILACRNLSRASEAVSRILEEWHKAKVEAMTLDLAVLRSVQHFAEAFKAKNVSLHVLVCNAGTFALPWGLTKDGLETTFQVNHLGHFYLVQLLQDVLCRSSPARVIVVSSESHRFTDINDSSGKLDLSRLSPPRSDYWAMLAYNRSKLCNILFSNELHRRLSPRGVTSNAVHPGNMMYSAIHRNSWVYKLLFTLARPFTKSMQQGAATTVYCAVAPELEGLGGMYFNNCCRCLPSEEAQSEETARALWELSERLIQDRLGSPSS
Assay: co-IP; endogenous WWOX immunoprecipitated with monoclonal mouse anti-WWOX cocktail antibodies and protein A/G plus agarose beads, overnight at 4 °C, from whole-cell lysates of 266-6 KrasG12D cells not activated or activated with doxycycline for 24 h; lysis buffer 50 mM Tris pH 7.5, 150 mM NaCl, 10% glycerol, 1% NP-40; IgG as control; immunoblot of the precipitate

SMAD3 (from UniProt Q8BUN5 1-425)
binding: binds
